Measured values: patent US20060035291A1, “Method of detecting cellular immunity and application thereof to drugs” (priority 2001, published 2006)

System: peptide-specific IgE
Assay: ELISA of peptide-specific serum IgE
Type: binding, human
Conditions: patients vaccinated with non-allergic CypB91 (2 or 3 doses), ART475 (3, 9, 15 doses) or SART3109 (11, 17 doses)

DYPSLSATDI [ART475]
IgE to the peptide in serum after vaccination: increased
